# At least one structure is not confirmed: it was looked up by name or label, or the drawing left a doubt.
# System: 4T1 triple-negative breast cancer
# Experiment: Therapeutic efficacy in a murine 4T1 tumor model
# Type: in vivo, BALB/c mice
# Details: 15 µg per injection, every other day x5
smiles,measurement,value
"CCOCc1nc2c(N)nc3ccccc3c2n1CC(C)(C)O [free R848, Resiquimod]",4T1 tumor growth / antitumor efficacy,intermediate level of antitumor efficacy

# Reference: patent US20230310504A1, “PLATELET MEMBRANE COATED NANOPARTICLES AND USES THEREOF” (CELLO THERAPEUTICS, INC., priority 2020, published 2023)
